No constants are given. Whether binding was seen depends on the method and setting.

Amino acid sequences for entries named in this document (tags omitted). A change or cut given only in a name is not applied to a line headed by its entry.
UniProt Q13257: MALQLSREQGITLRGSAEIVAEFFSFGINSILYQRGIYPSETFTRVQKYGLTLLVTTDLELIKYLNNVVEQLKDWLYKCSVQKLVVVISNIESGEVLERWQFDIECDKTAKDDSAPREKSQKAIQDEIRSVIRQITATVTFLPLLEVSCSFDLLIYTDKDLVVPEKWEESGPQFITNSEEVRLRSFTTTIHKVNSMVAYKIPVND

The target in this assay is T1, Mad2^R133A (human, UniProt Q13257 1-205, R133A).
T1 construct: Mad2, human, full-length, R133A; Tag is followed by a TEV site; 15N-labelled for NMR; Starts in the open state; also called O-Mad2^R133A; C-Mad2^R133A; source: E. coli BL21 Star (DE3) with pRARE, purified
Description: time-resolved NMR (series of 2D 1H,15N HSQC spectra); 100 μM 15N Mad2 variant, MIM peptide at two-fold molar excess, 25°C, 20 mM HEPES pH 7.0, 100 mM NaCl, 1 mM TCEP, 5% D2O; Trp75 and Trp167 indole NH resonances as reporters of the ligand-bound closed state; 12 min per spectrum, up to 24 h; both purified.

QNAPEGYQNRLKVLY [Cdc20^MIM-138-152]: the binding result was “no binding (tested: after two hours)”.

(Values after article PMC11947619, “Molecular mechanism of Mad2 conformational conversion promoted by the Mad2‐interaction motif of Cdc20” (Protein Science : A Publication of the Protein Society, 2025).)
